# Results as given in PubChem BioAssay AID504444 (National Center for Advancing Translational Sciences (NCATS), 2011).
# Among all 360,000 compounds or so, about 7,500 (2.1%) were called active. The inconclusive results got no clear call from the source; some entries with a clear call stand among them for comparison. The call rests on the fitted dose curve; in most records, active means well fitted inhibition curve with a large enough effect; inconclusive means small, poorly fitted or top-dose-only effect, or effect the other way; inactive means flat fitted curve, though single readings scatter. Where the call is inconclusive, the potency comes from a doubtful curve fit.
# Test: Nrf2 qHTS screen for inhibitors; further: nearly all actives have a fitted effect of over 60% in size
# Conditions: A549 ARE-Fluc reporter, luciferase luminescence, 18-24 h; activity change, negative = inhibition: at 46 µM (top of the series)
# In short: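 A549 ARE_Fluc cells, 5000/well, 5% FBS OPTI-MEM; compounds in dose-response, 18-24 h at 37 °C/5% CO2; CellTiter-Fluor viability read (Ex 405/Em 525), then BugLite luciferase luminescence = Nrf2 activity.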
# On the % scale 0 is the no-effect control and ±100 the full control effect; potency means the concentration at half of the fitted maximal effect.
SMILES,Potency,"activity change, negative = inhibition"
CC(C)c1ccc(NC(=O)CN2C(=O)NC3(CCCCCCC3)C2=O)cc1,"inconclusive: 8.2 µM [falling, partial curve]",–
CC(=O)Nc1ccc(/C=N/Nc2nc3ccccc3[nH]2)cc1,"inconclusive: 32.6 µM [falling, single point]",–
COc1ccc(C2Nc3ccccc3C(=O)N2Cc2ccco2)cc1CN1C(=O)c2ccccc2C1=O (stereo not given),"inconclusive: 6.51 µM [activator, partial curve, poor fit]",–
Cn1cccc1C(=O)OCc1csc(-c2ccccc2)n1,"inconclusive: 2.91 µM [activator, full curve]",–
COc1nc(-c2ccccc2)ncc1S(=O)(=O)c1ccccc1,"inconclusive: 29.1 µM [falling, partial curve, poor fit]",–
O=C(Nc1ccc(N2CCOCC2)cc1)c1cccc(S(=O)(=O)N2CCCCC2)c1,active: 20.6 µM,–
Cc1cccn2c(=O)nc(SCC(=O)Nc3ccc4c(c3)OCCO4)nc12,"inconclusive: 25.9 µM [falling, partial curve, poor fit]",–
CC(C)Cc1cc(C(=O)NCCc2ccccc2)no1,"inconclusive: 5.8 µM [activator, partial curve]",–
O=C(NC(=S)Nc1cccc(Cl)c1N1CCCC1)c1ccc(-c2cccc([N+](=O)[O-])c2)o1,–,inactive: -26.6%
COc1cc(NC(=O)CSc2cc(C)c3cc(C)cc(C)c3n2)c(C(=O)O)cc1OC,–,inactive: 3.57%
Nc1nc(=S)c2[nH]c(=S)[nH]c2[nH]1,–,inactive: 1.88%
C[C@@H]1C(c2ccccc2)=NN(c2ccc(Br)cc2)[C@H]1C(=O)N1CCOC1=O,–,inactive: -4.19%
Cc1ccc(NC(=O)c2c(C)nc3ccccn23)cc1C,"inconclusive: 10.3 µM [activator, partial curve]",–
CCOC(=O)N1CCN(C(=O)CCCOc2ccccc2)CC1,"inconclusive: 1.03 µM [activator, full curve]",–
CN1CCC(=O)N(CCSc2ccccc2)CC1,"inconclusive: 11.6 µM [activator, partial curve, poor fit]",–
COc1cc(C(=O)NCCN=C2NS(=O)(=O)c3ccccc32)cc(OC)c1OC,–,inactive: 3.73%
COc1ccc(NC(=O)c2sccc2C)cn1,"inconclusive: 20.6 µM [activator, single point]",–
CC(C)OC(=O)Cn1nc(C(c2ccccc2)c2ccccc2)oc1=O,–,inactive: 1.32%
COc1cc(-c2noc(-c3ccc(NCc4cccnc4)c([N+](=O)[O-])c3)n2)cc(OC)c1OC,"inconclusive: 29.1 µM [falling, single point]",–
COc1ccc(OC)c(CNC(=O)CCCn2ccc3cc(S(=O)(=O)N4CCCC4)ccc32)c1,active: 14.6 µM,–
COc1ccccc1Oc1cc(-n2nc(C)cc2C)ncn1,"inconclusive: 6.51 µM [activator, single point]",–
COc1ccc(/C=N/Nc2nncn2N)cc1Br,–,inactive: 1.81%
O=C(Nc1ccc2nc3ccccc3nc2c1)c1ccc(Br)cc1,"inconclusive: 9.2 µM [falling, partial curve]",–

# Among those listed so far, two have an NH in an aromatic ring:
SMILES,Potency,"activity change, negative = inhibition"
CC(=O)Nc1ccc(/C=N/Nc2nc3ccccc3[nH]2)cc1,"inconclusive: 32.6 µM [falling, single point]",–
Nc1nc(=S)c2[nH]c(=S)[nH]c2[nH]1,–,inactive: 1.88%

# (listing goes on)

SMILES,Potency,"activity change, negative = inhibition"
COCCCNC(=O)COc1cc2c(c3oc(=O)c(C)c(C)c13)CCC(C)(C)O2,–,inactive: -3.23%
CCOc1ccc(CNC(=O)CCC(=O)N2CC(C)Sc3ccccc32)cc1 (stereo not given),–,inactive: 12.7%
COc1ccc(-n2c(COc3ccc(Cl)cc3)nnc2SCc2ccc(C#N)cc2)cc1,"inconclusive: 29.1 µM [falling, single point]",–
N#C/C(=C/c1cn(Cc2ccc(F)cc2)c2ccccc12)C(=O)Nc1cccc(Cl)c1,"inconclusive: 16.4 µM [falling, single point]",–
COc1ccccc1Nc1nn2c(=O)c3ccc(C(=O)NCCCOC(C)C)cc3nc2s1,–,inactive: -18.7%
COc1ccc(N2C(=O)N3[C@H](c4ccc(Cl)cc4)[C@@H]4C(=O)N(C5CCCCC5)C(=O)[C@@H]4[C@]3(C)C2=O)cc1,"inconclusive: 18.4 µM [falling, partial curve, poor fit]",–
N=c1c2c(ncn1CCN1CCOCC1)Oc1ccc3ccccc3c1C2c1ccccc1 (stereo not given),"inconclusive: 29.1 µM [activator, single point]",–
O=C(O)C(Cc1ccnc2ccccc12)=NO,–,inactive: -5.5%
Cc1cc(C)c(C#N)c(SCCS(=O)(=O)Cc2ccc(Cl)cc2)n1,–,inactive: -16.5%
COc1cc(C(=O)Oc2c(Sc3ccc(C)cc3)c(C)nn2-c2ccccc2)cc(OC)c1OC,–,inactive: -13.2% [at 9.27 µM]
CCn1c(/C=C/Nc2ccccc2)[n+](CC)c2ccc(Cl)cc21,–,inactive: 8.06%
CC1Sc2ccc(S(=O)(=O)N3CCC(C(=O)N(C)Cc4ccco4)CC3)cc2NC1=O (stereo not given),"inconclusive: 11.6 µM [falling, partial curve]",–
c1ccc(CCc2ccccn2)cc1,"inconclusive: 1.84 µM [falling, partial curve, poor fit]",–
O=C(Nc1cccc(-c2cc3ccccc3oc2=O)c1)c1ccc(Br)o1,"inconclusive: 13 µM [falling, partial curve, poor fit]",–
O=C(Nc1ccc(N2CCCCC2)cc1)c1ccccc1,"inconclusive: 4.11 µM [activator, single point]",–
Cc1ccc(OCCn2cc(C(=S)N3CCCC3)c3ccccc32)cc1C,"inconclusive: 6.51 µM [activator, single point]",–
S=c1[nH]nc(-c2ccncc2)n1/N=C/c1cn(-c2ccccc2)nc1-c1ccccc1,"inconclusive: 29.1 µM [activator, single point]",–
CCOc1ccc(CCNC(=O)c2nn(C)c3c2CS(=O)(=O)c2ccccc2-3)cc1,"inconclusive: 3.66 µM [falling, partial curve]",–
CCNC(=O)c1cnc2sc(N3CCCCCC3)nn2c1=O,"inconclusive: 18.4 µM [activator, single point]",–
C=CCn1c(=O)/c(=C/c2ccsc2)s/c1=C(\C#N)C(=O)NCCN1CCOCC1,–,inactive: -10.9%
CC1CCN(c2ccccc2NC(=S)NC(=O)c2cccs2)CC1,–,inactive: 9.75%
COc1ccc(NC(=O)/C(C#N)=C/C=C/c2ccco2)cc1,"inconclusive: 29.1 µM [falling, single point]",–
